Results taken from patent US10662409B2, “Methods of generating neural stem cells” (Trustees of Tufts College, priority 2015, dated 2020).
At least one structure is not confirmed: it was looked up by name or label, or the drawing left a doubt.

Tests used:
[1] = test system: hiNSCs; assay: Differentiation of dissociated hiNSCs with retinoic acid added to basal media (immunostaining); assay type: cell-based, human; conditions: increasing amounts of retinoic acid added to basal media; 8 day cultures
Protocol: (§1) To encourage spontaneous differentiation, hiNSC colonies were enzymatically removed from MEF feeder layers using TrypLE (Invitrogen), then dissociated as much as possible by manually pipetting. This cell suspension was sometimes further separated into a single cell suspension using a […] cell strainer to remove larger clumps. Dissociated hiNSCs were plated and cultured on multiple substrates including CELLstart (Invitrogen), laminin (Roche) or gelatin in hiNSC basal media without bFGF or in neurobasal media supplemented with 2% B27 (Invitrogen), 1% Glutamax, and 1% antibiotic-antimycotic. hiNSC cells began to show differentiation into BIII-tubulin (TUJ1)-positive immature neurons with visible neurite extensions in as little as 4 days. After two weeks in basal media, hiNSC cells spontaneously differentiated into more mature neuronal and glial subtypes. Adding various amounts of retinoic acid (10-100 μM) caused cells to differentiate into more mature neuronal phenotypes in a shorter amount of time (˜8 days). […] For guided differentiation, Shh (500 ng/ml, Peprotech), FGF8 (500 ng/ml, Peprotech), and RA (R&D) at concentrations between 10-100 μM were used to facilitate neuronal and glial differentiation within shorter culture periods (˜7-8 days). For differentiation studies in undefined media, DMEM supplemented with 10% FBS and 1% antibiotic-antimycotic was used. […]

[2] = test system: hiNSCs; assay: Guided differentiation of hiNSCs into neuronal subtypes with growth factors in Neurobasal media (HB9 / TH immunostaining); assay type: cell-based, human; conditions: added to Neurobasal media; one week in culture; Shh 500 ng/ml, RA 10-100 μM
Protocol: as §1

CC1=C(/C=C/C(C)=C/C=C/C(C)=C/C(=O)O)C(C)(C)CCC1 [retinoic acid]
GFAP marker expression [1]: increase | staining of HB9 (motor neuron marker) [2]: increase
